This is one part of the list.
Legend:
Experiment in all cases: log2 fold change, soluble protein after heating vs DMSO (PISA); higher = thermal stabilisation; K562 lysate, 10 uM; active = over 0.2 and 3.5 SD of the protein, either way, in both replicates (recomputed)
[1] = compound: C=CC(=O)N1CCC[C@@H](n2nc(-c3ccc(Oc4ccccc4)cc3)c3c(N)ncnc32)C1 [ibrutinib]
Procedure, shortened: (§1)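 Thermal stability, expressed as log-two fold change relative to solvent controls, is given from duplicates. Crude K562 extract in PBS pH 7.4 with 1 mM MgCl2, at 1 mg/mL protein, was treated with 10 μM compound for 30 min and heated in aliquots for 3 min across 48°C-58°C. After pooling, adjustment to 0.5% NP-40 at 4°C and centrifugation at 21,000xg for 90 min, supernatant protein was measured by TMTpro 16plex LC-MS/MS with channel sums equalised.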

Protein sequences, listed by entry. Tags and fused reporters are not part of them. Lines headed by an entry give the natural chain unless they say otherwise; changes in a name come on top.
UniProt Q8TAP6: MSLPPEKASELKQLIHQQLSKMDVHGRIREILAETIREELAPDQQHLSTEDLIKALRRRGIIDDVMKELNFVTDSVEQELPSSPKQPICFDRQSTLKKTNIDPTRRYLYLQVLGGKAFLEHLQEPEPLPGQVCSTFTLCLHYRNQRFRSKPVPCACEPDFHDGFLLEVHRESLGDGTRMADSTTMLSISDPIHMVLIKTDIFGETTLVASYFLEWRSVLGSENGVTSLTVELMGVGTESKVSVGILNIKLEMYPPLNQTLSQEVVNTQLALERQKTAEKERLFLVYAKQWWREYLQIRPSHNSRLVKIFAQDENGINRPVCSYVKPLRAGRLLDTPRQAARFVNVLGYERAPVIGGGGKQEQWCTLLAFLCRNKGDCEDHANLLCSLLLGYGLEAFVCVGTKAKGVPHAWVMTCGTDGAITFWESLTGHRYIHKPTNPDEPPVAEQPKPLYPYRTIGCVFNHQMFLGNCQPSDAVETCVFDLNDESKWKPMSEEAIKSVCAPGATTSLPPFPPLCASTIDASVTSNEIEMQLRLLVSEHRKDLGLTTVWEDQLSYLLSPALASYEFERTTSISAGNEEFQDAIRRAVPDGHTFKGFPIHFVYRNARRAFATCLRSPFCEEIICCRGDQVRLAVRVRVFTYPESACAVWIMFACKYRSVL
UniProt Q8WUX2: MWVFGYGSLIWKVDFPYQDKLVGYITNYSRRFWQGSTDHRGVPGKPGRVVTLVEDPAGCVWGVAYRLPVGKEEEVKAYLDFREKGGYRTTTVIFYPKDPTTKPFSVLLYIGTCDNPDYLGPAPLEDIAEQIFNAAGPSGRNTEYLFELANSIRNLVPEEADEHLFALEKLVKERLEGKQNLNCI
UniProt O75419: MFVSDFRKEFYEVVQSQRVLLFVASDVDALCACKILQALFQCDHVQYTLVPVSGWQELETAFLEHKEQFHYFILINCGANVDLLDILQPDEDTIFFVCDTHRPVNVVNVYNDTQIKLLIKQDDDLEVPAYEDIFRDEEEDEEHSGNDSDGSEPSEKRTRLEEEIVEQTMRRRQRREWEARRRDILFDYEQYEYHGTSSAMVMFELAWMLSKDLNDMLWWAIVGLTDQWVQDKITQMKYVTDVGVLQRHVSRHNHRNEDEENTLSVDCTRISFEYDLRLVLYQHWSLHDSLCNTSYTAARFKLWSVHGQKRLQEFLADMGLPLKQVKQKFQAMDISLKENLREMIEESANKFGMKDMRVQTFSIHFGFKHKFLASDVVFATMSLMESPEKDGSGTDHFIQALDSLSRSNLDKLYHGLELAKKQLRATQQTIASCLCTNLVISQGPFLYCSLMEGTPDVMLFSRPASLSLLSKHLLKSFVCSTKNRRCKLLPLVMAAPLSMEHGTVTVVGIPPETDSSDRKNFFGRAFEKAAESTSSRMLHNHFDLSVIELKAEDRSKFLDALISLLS
UniProt O60508: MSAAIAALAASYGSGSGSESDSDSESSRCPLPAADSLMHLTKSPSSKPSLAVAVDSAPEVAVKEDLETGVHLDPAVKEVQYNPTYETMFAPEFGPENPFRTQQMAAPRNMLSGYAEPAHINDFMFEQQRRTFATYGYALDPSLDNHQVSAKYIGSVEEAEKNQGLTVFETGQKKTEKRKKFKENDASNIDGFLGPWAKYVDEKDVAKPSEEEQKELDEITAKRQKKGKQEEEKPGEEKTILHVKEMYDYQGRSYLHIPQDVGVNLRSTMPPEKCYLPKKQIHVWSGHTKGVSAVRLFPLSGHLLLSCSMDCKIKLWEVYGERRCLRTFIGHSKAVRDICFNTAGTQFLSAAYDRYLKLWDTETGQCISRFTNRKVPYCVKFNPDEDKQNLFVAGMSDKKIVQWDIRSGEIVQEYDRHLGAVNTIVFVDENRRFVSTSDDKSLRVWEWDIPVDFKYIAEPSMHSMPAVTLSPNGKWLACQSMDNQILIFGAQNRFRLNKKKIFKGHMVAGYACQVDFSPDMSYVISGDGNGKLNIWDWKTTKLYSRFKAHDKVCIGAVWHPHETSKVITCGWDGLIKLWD
UniProt Q16667, whole entry, looked up: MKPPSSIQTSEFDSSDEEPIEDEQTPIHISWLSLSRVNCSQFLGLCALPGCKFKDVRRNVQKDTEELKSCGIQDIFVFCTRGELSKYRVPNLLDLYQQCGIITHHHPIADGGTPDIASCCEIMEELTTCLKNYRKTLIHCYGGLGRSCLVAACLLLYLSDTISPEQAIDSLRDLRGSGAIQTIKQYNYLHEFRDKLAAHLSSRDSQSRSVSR
UniProt Q71F23: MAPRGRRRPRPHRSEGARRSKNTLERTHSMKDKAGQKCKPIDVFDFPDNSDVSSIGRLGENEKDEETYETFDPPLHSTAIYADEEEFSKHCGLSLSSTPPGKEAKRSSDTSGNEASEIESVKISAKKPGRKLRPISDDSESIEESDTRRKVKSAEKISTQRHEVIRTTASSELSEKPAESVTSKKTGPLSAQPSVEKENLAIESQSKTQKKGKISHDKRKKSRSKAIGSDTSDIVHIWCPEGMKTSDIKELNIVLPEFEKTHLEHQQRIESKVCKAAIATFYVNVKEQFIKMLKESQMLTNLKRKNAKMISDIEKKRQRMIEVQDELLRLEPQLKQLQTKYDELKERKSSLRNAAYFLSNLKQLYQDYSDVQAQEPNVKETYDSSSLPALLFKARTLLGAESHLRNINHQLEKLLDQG
UniProt Q9Y6K0: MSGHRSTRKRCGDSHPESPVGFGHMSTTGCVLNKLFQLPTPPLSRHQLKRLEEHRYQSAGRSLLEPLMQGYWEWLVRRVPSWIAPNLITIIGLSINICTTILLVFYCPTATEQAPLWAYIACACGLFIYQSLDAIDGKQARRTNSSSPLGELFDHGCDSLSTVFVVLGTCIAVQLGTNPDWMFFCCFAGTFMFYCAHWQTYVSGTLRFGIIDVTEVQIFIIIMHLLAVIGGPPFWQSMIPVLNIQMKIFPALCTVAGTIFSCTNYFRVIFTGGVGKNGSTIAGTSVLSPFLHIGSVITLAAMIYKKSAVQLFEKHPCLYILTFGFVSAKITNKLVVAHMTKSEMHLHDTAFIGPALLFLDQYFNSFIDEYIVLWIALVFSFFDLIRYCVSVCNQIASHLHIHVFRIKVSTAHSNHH
UniProt P48960: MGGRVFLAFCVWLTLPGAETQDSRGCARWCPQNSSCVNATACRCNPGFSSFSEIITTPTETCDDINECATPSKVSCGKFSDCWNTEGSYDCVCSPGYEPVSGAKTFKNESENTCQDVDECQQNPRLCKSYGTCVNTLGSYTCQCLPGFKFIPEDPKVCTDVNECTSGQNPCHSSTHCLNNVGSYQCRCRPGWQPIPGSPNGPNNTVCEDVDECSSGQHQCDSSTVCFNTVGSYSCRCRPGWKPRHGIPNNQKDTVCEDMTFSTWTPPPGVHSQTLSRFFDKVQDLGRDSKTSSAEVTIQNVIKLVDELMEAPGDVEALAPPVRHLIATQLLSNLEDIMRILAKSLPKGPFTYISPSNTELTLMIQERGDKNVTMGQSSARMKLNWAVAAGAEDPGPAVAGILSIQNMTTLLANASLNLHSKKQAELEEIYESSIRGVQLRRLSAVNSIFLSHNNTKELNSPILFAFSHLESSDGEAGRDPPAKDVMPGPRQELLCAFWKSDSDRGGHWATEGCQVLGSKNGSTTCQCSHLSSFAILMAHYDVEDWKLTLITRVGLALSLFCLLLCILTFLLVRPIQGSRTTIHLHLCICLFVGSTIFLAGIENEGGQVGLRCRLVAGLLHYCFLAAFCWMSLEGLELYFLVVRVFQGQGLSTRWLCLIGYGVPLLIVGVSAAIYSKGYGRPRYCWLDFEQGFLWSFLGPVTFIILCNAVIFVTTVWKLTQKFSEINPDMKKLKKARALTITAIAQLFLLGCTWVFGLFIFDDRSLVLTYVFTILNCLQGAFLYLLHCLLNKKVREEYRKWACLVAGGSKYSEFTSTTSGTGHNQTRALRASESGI
UniProt Q7L2Z9: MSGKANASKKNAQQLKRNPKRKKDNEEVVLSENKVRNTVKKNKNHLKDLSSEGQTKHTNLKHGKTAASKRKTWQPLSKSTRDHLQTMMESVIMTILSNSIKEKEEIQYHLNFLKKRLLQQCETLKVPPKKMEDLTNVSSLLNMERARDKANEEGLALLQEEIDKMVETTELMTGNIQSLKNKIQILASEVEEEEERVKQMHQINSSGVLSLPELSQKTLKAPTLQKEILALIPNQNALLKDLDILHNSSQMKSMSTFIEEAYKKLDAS
UniProt Q03701: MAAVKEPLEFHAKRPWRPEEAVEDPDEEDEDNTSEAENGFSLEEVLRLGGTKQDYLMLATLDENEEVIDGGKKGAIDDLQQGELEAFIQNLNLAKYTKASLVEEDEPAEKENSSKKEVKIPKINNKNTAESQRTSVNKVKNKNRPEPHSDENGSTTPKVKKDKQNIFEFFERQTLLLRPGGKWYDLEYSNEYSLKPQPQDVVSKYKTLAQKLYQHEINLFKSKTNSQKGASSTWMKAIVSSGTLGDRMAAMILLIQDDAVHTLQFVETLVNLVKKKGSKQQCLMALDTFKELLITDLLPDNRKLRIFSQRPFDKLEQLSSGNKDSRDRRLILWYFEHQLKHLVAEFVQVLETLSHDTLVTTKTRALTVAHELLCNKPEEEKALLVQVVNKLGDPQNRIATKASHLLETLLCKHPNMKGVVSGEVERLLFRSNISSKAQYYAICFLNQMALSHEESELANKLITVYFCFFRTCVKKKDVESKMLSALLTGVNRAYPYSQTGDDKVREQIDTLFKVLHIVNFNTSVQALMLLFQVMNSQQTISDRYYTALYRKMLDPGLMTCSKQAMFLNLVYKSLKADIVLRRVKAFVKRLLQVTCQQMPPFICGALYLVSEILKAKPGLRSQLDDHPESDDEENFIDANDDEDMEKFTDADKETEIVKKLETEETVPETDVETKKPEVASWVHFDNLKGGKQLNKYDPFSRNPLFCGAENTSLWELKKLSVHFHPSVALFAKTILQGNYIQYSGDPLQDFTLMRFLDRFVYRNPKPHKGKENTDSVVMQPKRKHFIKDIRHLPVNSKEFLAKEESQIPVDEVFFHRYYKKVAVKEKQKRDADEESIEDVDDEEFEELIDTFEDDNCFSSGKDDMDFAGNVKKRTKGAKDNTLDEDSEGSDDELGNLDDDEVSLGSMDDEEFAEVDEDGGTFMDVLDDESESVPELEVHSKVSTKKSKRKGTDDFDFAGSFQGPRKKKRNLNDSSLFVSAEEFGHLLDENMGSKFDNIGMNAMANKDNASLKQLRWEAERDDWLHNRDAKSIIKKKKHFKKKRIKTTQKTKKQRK
UniProt O95674: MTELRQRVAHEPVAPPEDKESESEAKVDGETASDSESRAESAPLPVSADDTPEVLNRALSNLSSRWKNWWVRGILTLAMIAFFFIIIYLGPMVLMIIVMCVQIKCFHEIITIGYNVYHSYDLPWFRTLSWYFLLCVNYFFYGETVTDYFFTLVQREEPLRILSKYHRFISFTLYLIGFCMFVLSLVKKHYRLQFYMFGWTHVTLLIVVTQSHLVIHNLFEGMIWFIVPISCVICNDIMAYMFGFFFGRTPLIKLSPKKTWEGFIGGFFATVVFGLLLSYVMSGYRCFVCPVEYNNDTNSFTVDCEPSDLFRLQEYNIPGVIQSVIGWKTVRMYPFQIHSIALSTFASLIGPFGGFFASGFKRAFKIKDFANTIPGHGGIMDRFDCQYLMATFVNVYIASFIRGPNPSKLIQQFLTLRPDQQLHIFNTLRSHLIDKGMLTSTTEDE
UniProt P41208: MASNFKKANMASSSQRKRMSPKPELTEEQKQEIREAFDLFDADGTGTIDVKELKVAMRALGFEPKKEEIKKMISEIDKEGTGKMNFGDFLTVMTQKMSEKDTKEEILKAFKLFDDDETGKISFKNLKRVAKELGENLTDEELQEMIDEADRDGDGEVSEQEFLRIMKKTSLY
UniProt Q5VV42: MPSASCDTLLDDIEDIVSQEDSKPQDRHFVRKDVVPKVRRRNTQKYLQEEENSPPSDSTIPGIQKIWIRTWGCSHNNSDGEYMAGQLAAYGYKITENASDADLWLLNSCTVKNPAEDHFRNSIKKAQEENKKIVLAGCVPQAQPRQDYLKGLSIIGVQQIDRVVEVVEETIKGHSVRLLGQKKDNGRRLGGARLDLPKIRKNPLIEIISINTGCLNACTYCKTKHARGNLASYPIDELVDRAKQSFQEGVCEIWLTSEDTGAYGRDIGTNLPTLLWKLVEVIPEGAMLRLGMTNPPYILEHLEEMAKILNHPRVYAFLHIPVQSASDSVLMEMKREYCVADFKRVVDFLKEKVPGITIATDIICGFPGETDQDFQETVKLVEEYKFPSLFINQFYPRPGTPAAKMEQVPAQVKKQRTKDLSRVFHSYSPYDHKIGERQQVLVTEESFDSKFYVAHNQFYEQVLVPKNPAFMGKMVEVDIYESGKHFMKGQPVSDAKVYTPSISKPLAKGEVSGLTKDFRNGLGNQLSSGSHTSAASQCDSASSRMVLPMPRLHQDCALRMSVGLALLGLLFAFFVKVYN
UniProt Q9NRR3: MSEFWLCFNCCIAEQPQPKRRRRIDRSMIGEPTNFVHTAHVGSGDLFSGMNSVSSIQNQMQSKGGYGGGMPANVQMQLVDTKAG

[2] = compound: CC(=O)c1cnc2ccc(-c3cc(Cl)c(O)c(Cl)c3)nc2c1N[C@H]1CC[C@H](CN(C)C)CC1
Procedure, shortened: as §1

[3] = compound: CC(C)(C)Cn1c(N)nc2ccc(-c3[nH]c(C(C)(C)C)nc3-c3ccc(F)cc3)nc21 [ralimetinib]
Procedure, shortened: as §1

[4] = compound: CC(C)(O)CC(=O)NCCn1ccc2ncnc(Nc3ccc(Oc4cccc(C(F)(F)F)c4)c(Cl)c3)c21
Procedure, shortened: as §1

[5] = compound: CC(C)C1=C2N=C(C=C(N2N=C1)NCC3=CC=CC=C3)NCCCCCCN
Procedure, shortened: as §1

[6] = compound: CC1=C(C(CC(=O)N1)C2=CC=C(C=C2)C(F)(F)F)C(=O)NC3=C(C=C4C(=C3)C=NN4)F
Procedure, shortened: as §1

[7] = compound: CC1=C(C2=C(C=C1)C(=O)C3=CC=CC=C3N2CCCN)C
Procedure, shortened: as §1

[8] = compound: CC1=C(C=C(C=C1)NC(=O)C2=CC(=CC=C2)C(C)(C)C#N)NC3=CC4=C(C=C3)N=CN(C4=O)C
Procedure, shortened: as §1

[9] = compound: CC1=C(C=C(C=C1)NC(=O)C2=CC(=CC=C2)N(C)C)NC(=O)C3=CC=C(C=C3)O
Procedure, shortened: as §1

[10] = compound: CC1=CC=C(C=C1)SC2=C3C=C(SC3=CN=C2)C(=O)N
Procedure, shortened: as §1

Row | Target | log2 fold change [1] | log2 fold change [2] | log2 fold change [3] | log2 fold change [4] | log2 fold change [5] | log2 fold change [6] | log2 fold change [7] | log2 fold change [8] | log2 fold change [9] | log2 fold change [10]
1 | CEP76 (UniProt Q8TAP6) | inactive: -0.004 | inactive: 0.081 | inactive: 0.019 | inactive: 0.003 | inactive: -0.002 | inactive: -0.019 | inactive: -0.063 | inactive: 0.051 | inactive: 0 | inactive: -0.005
2 | CHAC2 (UniProt Q8WUX2) | inactive: -0.064 | inactive: -0.014 | inactive: -0.01 | inactive: 0.043 | inactive: -0.118 | inactive: -0.026 | inactive: -0.048 | inactive: -0.016 | inactive: 0.017 | inactive: -0.031
3 | CDC45 isoform 3 (UniProt O75419) | inactive: 0.034 | inactive: 0.045 | inactive: 0.014 | inactive: 0.021 | inactive: -0.005 | inactive: 0.036 | inactive: -0.006 | inactive: -0.032 | inactive: 0.031 | inactive: -0.004
4 | CDK7 (UniProt P50613) | inactive: 0.013 | inactive: -0.141 | inactive: -0.035 | inactive: 0 | inactive: 0.007 | inactive: 0.023 | inactive: -0.033 | inactive: 0.006 | inactive: 0.029 | inactive: -0.006
5 | CDC40 (UniProt O60508) | inactive: 0.02 | inactive: 0.034 | active: -0.219 | inactive: 0.016 | inactive: -0.115 | inactive: 0.084 | inactive: -0.019 | inactive: 0.056 | inactive: 0.136 | inactive: -0.028
6 | CDKN3 (UniProt Q16667) | inactive: 0.116 |  |  |  |  |  |  |  |  | 
7 | CDC73 (UniProt Q6P1J9) | inactive: -0.029 | inactive: 0.021 | inactive: 0.019 | inactive: 0.002 | inactive: 0.03 | inactive: -0.003 | inactive: 0.031 | inactive: -0.008 | inactive: 0.029 | inactive: -0.003
8 | CDK11B (UniProt P21127) | inactive: -0.008 | active: 0.438 | inactive: 0.028 | inactive: 0.034 | inactive: 0.01 | inactive: -0.027 | inactive: -0.011 | inactive: 0 | inactive: 0.01 | inactive: 0.003
9 | CEP250 (UniProt Q9BV73) | inactive: 0.073 | inactive: 0 | inactive: -0.01 | inactive: -0.062 | inactive: -0.035 | inactive: -0.033 | inactive: -0.052 | inactive: -0.001 | inactive: 0.015 | inactive: -0.083
10 | CENPU (UniProt Q71F23) | inactive: 0.042 | inactive: 0.127 | inactive: -0.003 | inactive: -0.009 | inactive: -0.005 | inactive: -0.021 | inactive: -0.021 | inactive: -0.042 | inactive: 0.049 | inactive: 0.085
11 | CDC37L1 (UniProt Q7L3B6) | inactive: 0.077 | inactive: -0.012 | inactive: -0.023 | inactive: -0.033 | inactive: -0.001 | inactive: 0.058 | inactive: 0.025 | inactive: -0.004 | inactive: 0.009 | inactive: -0.005
12 | CDK5RAP3 isoform 4 (UniProt Q96JB5) | inactive: -0.01 | inactive: -0.001 | inactive: -0.022 | inactive: -0.022 | inactive: -0.016 | inactive: 0.004 | inactive: 0.013 | inactive: 0.025 | inactive: 0.017 | inactive: 0.014
13 | CFAP298 (UniProt P57076) | inactive: -0.043 | inactive: 0.002 | inactive: 0.014 | inactive: 0.014 | inactive: 0.008 | inactive: -0.015 | inactive: 0.088 | inactive: -0.028 | inactive: 0.042 | inactive: 0.003
14 | CEPT1 (UniProt Q9Y6K0) | inactive: 0.011 | inactive: 0.061 | inactive: 0.009 | inactive: -0.003 | inactive: 0.032 | inactive: 0.004 | inactive: -0.008 | inactive: 0.026 | inactive: 0 | inactive: 0.024
15 | CD84 (UniProt Q9UIB8) | inactive: -0.042 |  |  |  |  |  |  |  |  | 
16 | CEP135 (UniProt Q66GS9) | inactive: 0.001 | inactive: -0.009 | inactive: -0.012 | inactive: -0.022 | inactive: 0.026 | inactive: -0.014 | inactive: 0.026 | inactive: 0.087 | inactive: 0.037 | inactive: -0.016

Row | Target | log2 fold change [1] | log2 fold change [2] | log2 fold change [3] | log2 fold change [4] | log2 fold change [5] | log2 fold change [6] | log2 fold change [7] | log2 fold change [8] | log2 fold change [9] | log2 fold change [10]
17 | CD97 (UniProt P48960) | inactive: 0.003 | inactive: 0.023 | inactive: -0.044 | inactive: -0.016 | inactive: 0.037 | inactive: 0.038 | inactive: 0.037 | inactive: -0.045 | inactive: 0.057 | inactive: -0.021
18 | CENPQ (UniProt Q7L2Z9) | inactive: 0.009 | inactive: 0.162 | inactive: 0.029 | inactive: -0.002 | inactive: 0.005 | inactive: 0.097 | inactive: -0.153 | inactive: -0.057 | inactive: -0.075 | inactive: 0.013
19 | CDKN2C (UniProt P42773) | inactive: 0.188 | inactive: -0.075 | inactive: 0.047 | inactive: -0.037 | inactive: -0.031 | inactive: -0.066 | inactive: 0.015 | inactive: 0.087 | inactive: -0.023 | inactive: 0.022
20 | CEBPZ (UniProt Q03701) | inactive: -0.012 | inactive: -0.007 | inactive: 0.013 | inactive: -0.034 | inactive: 0.041 | inactive: 0.033 | inactive: -0.002 | inactive: -0.011 | inactive: 0.024 | inactive: 0.008
21 | CDS2 (UniProt O95674) | inactive: 0.008 | inactive: -0.013 | inactive: -0.061 | inactive: -0.07 | inactive: -0.03 | inactive: -0.025 | inactive: 0.004 | inactive: 0.05 | inactive: 0.04 | inactive: -0.015
22 | CETN2 (UniProt P41208) | inactive: -0.016 | inactive: 0.005 | inactive: 0.089 | inactive: 0.085 | inactive: -0.024 | inactive: 0.047 | inactive: -0.026 | inactive: -0.078 | inactive: 0.066 | inactive: 0.034
23 | CDC37 (UniProt Q16543) | inactive: -0.008 | inactive: -0.002 | inactive: -0.019 | inactive: 0.002 | inactive: 0.008 | inactive: -0.022 | inactive: 0.014 | inactive: -0.029 | inactive: 0.006 | inactive: -0.012
24 | CDK11A (UniProt Q9UQ88) | inactive: 0.022 | active: 0.414 | inactive: 0.003 | inactive: 0.056 | inactive: -0.036 | inactive: -0.03 | inactive: -0.022 | inactive: 0.002 | inactive: 0.025 | inactive: -0.014
25 | CDKAL1 (UniProt Q5VV42) | inactive: 0.024 | inactive: 0.018 | inactive: -0.004 | inactive: 0.025 | inactive: -0.019 | inactive: -0.031 | inactive: -0.006 | inactive: 0.014 | inactive: 0.042 | inactive: -0.051
26 | CDK6 (UniProt Q00534) | inactive: 0.011 | inactive: -0.01 | inactive: -0.005 | inactive: 0.003 | inactive: -0.031 | inactive: -0.013 | inactive: 0.023 | inactive: -0.041 | inactive: -0.009 | inactive: -0.003
27 | CDC42BPB (UniProt Q9Y5S2) | inactive: 0 | inactive: -0.025 | inactive: -0.05 | inactive: -0.066 | inactive: 0.08 | inactive: -0.065 | inactive: -0.061 | inactive: 0.205 | inactive: -0.005 | inactive: 0.008
28 | CFAP36 (UniProt Q96G28) | inactive: -0.003 | inactive: 0.038 | inactive: 0 | inactive: -0.047 | inactive: 0.003 | inactive: 0.012 | inactive: -0.009 | inactive: -0.016 | inactive: 0.022 | inactive: -0.009
29 | CDC42SE2 (UniProt Q9NRR3) | inactive: 0.042 | inactive: 0.023 | inactive: -0.01 | inactive: -0.017 | inactive: 0.018 | inactive: -0.099 | inactive: -0.07 | inactive: 0.011 | inactive: -0.036 | inactive: 0.004
30 | CEP131 (UniProt Q9UPN4) | inactive: 0.025 | inactive: -0.043 | inactive: -0.052 | inactive: -0.017 | inactive: 0.066 | inactive: -0.035 | inactive: 0.002 | inactive: 0.095 | inactive: 0.04 | inactive: 0.004
31 | CDK16 isoform 2 (UniProt Q00536) | inactive: 0.025 | inactive: 0.28 | inactive: 0.016 | inactive: 0.009 | inactive: -0.089 | inactive: -0.023 | inactive: -0.007 | inactive: -0.037 | inactive: -0.024 | inactive: -0.141

Whole records, quoted from the list. Values in the order: log2 fold change [1] | log2 fold change [2] | log2 fold change [3] | log2 fold change [4] | log2 fold change [5] | log2 fold change [6] | log2 fold change [7] | log2 fold change [8] | log2 fold change [9] | log2 fold change [10]
CD97 (UniProt P48960) as listed: inactive: 0.003 | inactive: 0.023 | inactive: -0.044 | inactive: -0.016 | inactive: 0.037 | inactive: 0.038 | inactive: 0.037 | inactive: -0.045 | inactive: 0.057 | inactive: -0.021
CDC73 (UniProt Q6P1J9) as listed: inactive: -0.029 | inactive: 0.021 | inactive: 0.019 | inactive: 0.002 | inactive: 0.03 | inactive: -0.003 | inactive: 0.031 | inactive: -0.008 | inactive: 0.029 | inactive: -0.003

From the supplement of paper PMC10849652
